Laboratory results: publication PMC7531238
These are yes or no findings as the source states them, for the method shown. Binding seen in cells or lysates may run through a third protein. Some binding calls cover weakened binding; strength is not graded here.

Target: T1, phospho TAK1-Thr184/187 (human (endogenous in MDA-MB-231 and T47D)) (UniProt O43318)
T1 sequence (chain, phosphothreonine at 184/187 (phospho TAK1-Thr184/187)): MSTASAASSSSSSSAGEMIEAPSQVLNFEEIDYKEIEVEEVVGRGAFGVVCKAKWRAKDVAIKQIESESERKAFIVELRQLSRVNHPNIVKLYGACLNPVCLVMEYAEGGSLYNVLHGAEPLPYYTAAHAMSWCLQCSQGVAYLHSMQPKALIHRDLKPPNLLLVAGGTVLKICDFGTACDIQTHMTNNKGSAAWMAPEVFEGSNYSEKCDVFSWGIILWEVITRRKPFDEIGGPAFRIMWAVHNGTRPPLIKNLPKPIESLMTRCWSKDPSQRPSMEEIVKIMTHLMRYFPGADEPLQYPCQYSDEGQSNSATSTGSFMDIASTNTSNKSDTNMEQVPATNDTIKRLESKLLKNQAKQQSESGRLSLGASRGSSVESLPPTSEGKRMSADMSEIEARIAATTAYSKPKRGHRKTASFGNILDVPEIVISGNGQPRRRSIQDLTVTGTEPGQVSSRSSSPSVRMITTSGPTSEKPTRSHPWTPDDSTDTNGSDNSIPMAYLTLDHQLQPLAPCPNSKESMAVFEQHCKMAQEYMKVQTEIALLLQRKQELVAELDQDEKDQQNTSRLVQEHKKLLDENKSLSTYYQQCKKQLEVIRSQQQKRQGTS
Assay: co-IP; endogenous proteins in lysates of breast cancer cells (MDA-MB-231, T47D) treated with TLR3 ligand poly(I:C) 10 ug/ml for 24 h, with or without MyD88 inhibitor ST2825 (1 uM, added 4 h before); non-denaturing lysis buffer (20 mM Tris-HCl, 137 mM NaCl, 1% Triton X-100, 2 mM EDTA); 1 ug antibody and Dynabeads overnight at 4 C; Western blotting

B1: TGF-beta-activated kinase 1 (TAB1) (protein, UniProt Q15750 1-504)
chain: MAAQRRSLLQSEQQPSWTDDLPLCHLSGVGSASNRSYSADGKGTESHPPEDSWLKFRSENNCFLYGVFNGYDGNRVTNFVAQRLSAELLLGQLNAEHAEADVRRVLLQAFDVVERSFLESIDDALAEKASLQSQLPEGVPQHQLPPQYQKILERLKTLEREISGGAMAVVAVLLNNKLYVANVGTNRALLCKSTVDGLQVTQLNVDHTTENEDELFRLSQLGLDAGKIKQVGIICGQESTRRIGDYKVKYGYTDIDLLSAAKSKPIIAEPEIHGAQPLDGVTGFLVLMSEGLYKALEAAHGPGQANQEIAAMIDTEFAKQTSLDAVAQAVVDRVKRIHSDTFASGGERARFCPRHEDMTLLVRNFGYPLGEMSQPTPSPAPAAGGRVYPVSVPYSSAQSTSKTSVTLSLVMPSQGQMVNGAHSASTLDEATPTLTNQSPTLTLQSTNTHTQSSSSSSDGGLFRSRPAHSLPPGEDGRVEPYVDFAEFYRLWSVDHGEQSVVTAP
binding: binds
